These results are taken from PMC7819943, “Rice protein-binding microarrays: a tool to detect cis-acting elements near promoter regions in rice”.

This is one part of the list.

For this assay, the target named is T1, OsSMF1 (Oryza sativa, UniProt Q6ZLB0 1-436).
T1 sequence: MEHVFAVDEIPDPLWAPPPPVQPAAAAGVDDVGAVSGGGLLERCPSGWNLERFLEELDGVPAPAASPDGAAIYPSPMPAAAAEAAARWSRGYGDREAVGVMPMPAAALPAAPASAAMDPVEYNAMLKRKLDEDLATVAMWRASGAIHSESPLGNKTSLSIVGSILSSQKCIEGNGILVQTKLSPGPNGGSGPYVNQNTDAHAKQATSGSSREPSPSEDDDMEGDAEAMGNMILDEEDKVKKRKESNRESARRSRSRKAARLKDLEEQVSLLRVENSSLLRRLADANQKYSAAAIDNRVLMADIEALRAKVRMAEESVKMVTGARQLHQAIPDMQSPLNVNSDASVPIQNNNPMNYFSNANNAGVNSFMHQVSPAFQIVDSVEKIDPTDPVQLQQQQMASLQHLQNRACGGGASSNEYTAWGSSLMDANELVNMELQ
In words: protein-binding microarray (RPBM); PBS, 2% BSA, 51.3 ng/ul salmon testes DNA, 50 uM zinc acetate, 200 nM TF, 25 C, 1 h; high values mean tight binding. Particulars: protein: recombinant; tags: N-terminal polyhistidine and DsRed monomer fusion (pET32a); chain copies: 2; label: CyDye5-dUTP incorporated in the synthesized complementary strand; 3' TTTTT single-stranded linker to array surface; dsDNA, one strand shown. The method, boiled down:
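Transcription factors were each fused at the N-terminus to a polyhistidine tag plus DsRed and expressed in E. coli BL21-CodonPlus before Ni–NTA purification. Binding to a double-stranded custom Agilent array was carried out with 200 nM protein at 25 °C for 1 h in PBS, 2% BSA, salmon testes DNA and 50 µM zinc acetate. The binding signal is per-feature fluorescence intensity, in arbitrary units, on an Axon 4000B scanner.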
As to “CATCGTGCAGGTGCCCAGGCTGATGCTGCACCTGGACAAGCGGAGTCACCTAGTGCAG”, the binding signal was 3450 fluorescence intensity (a.u.).

For “ATGCACAATGCTAATGTACAACAGCATAACACTGTCACCCCGGAGTCACCTAGTGCAG”, the binding signal was 3230 fluorescence intensity (a.u.).

Turning to “GTGGCCGGCGTCCCCTCGAGCGGCGCTCTCCTCCACCTCCCGGAGTCACCTAGTGCAG”, the binding signal is 28700 fluorescence intensity (a.u.).

With “GCCCACCGGCCCAACGGCTCGCTCCACCTGCACACGTGTCCGGAGTCACCTAGTGCAG”, the binding signal is 11700 fluorescence intensity (a.u.).

Regarding “GTGAGGTTGGAATATTCTAGTTGCATGGCGTCATTTCACACGGAGTCACCTAGTGCAG”, the binding signal was 4340 fluorescence intensity (a.u.).

As for “ATTGATCACTCGGACGTCACCAAACGATCGATAAACTCGTCGGAGTCACCTAGTGCAG”, the binding signal was 5630 fluorescence intensity (a.u.).

On to “CATGTGTTGTGTCCATGTCCTATGTGGCTATGTGTATATACGGAGTCACCTAGTGCAG”, for which the binding signal is 3280 fluorescence intensity (a.u.).

Regarding “TAGGGGTAGGGTTTGCGTGCGCGTGCATTGTGAGTGTCTGCGGAGTCACCTAGTGCAG”, the binding signal was 3980 fluorescence intensity (a.u.).

Take “GCCGATACAGACAACGAGACAAGCCGCCGTCGCGTATCTCCGGAGTCACCTAGTGCAG”: the binding signal was 24100 fluorescence intensity (a.u.).

Regarding “CCTTCATATGCGCGCACCGCTCCTCCCGTTGTTTCCATCGCGGAGTCACCTAGTGCAG”, the binding signal was 3240 fluorescence intensity (a.u.).

As to “CCACACACAACCGATCGATATTTGCCCCGTCACACACAGCCGGAGTCACCTAGTGCAG”, the binding signal is 3810 fluorescence intensity (a.u.).

Turning to “CGCCTGATACCTGGTAAGTATCGGCCGATACCCCGTTTGGCGGAGTCACCTAGTGCAG”, the binding signal is 3380 fluorescence intensity (a.u.).

Take “AAACACACTGACACGCATTCGGCCCGTTCCCTCGATGCGTCGGAGTCACCTAGTGCAG”: the binding signal is 5340 fluorescence intensity (a.u.).

As to “TTGATATTTTCCTACCTTCAGCGGGATAAACAATAGAGAACGGAGTCACCTAGTGCAG”, the binding signal was 25300 fluorescence intensity (a.u.).

Turning to “GCGACGCCAACGAGGCCAATACCGGAAATAACACGCGCCCCGGAGTCACCTAGTGCAG”, the binding signal is 3390 fluorescence intensity (a.u.).

Regarding “GGACGGTACATATCCGACGATGAAAACCAAACCAACCGTGCGGAGTCACCTAGTGCAG”, the binding signal was 3380 fluorescence intensity (a.u.).

“AGCAACTCTTTTGACGTGGACAAATACAAACACGCGTCCACGGAGTCACCTAGTGCAG”: the binding signal was 8100 fluorescence intensity (a.u.).

Take “ATCATCTAGTTAAGACTGTTTGTATGCAACTATGCATGTACGGAGTCACCTAGTGCAG”: the binding signal was 31400 fluorescence intensity (a.u.).

For “TCGTCGTCGTCGTCGTCGTCGTCCTCGGCTAATGCCGCCTCGGAGTCACCTAGTGCAG”, the binding signal is 3200 fluorescence intensity (a.u.).

With “CGCGGCGCGCGAGGGCGAGGGGCGGCGGCGGCGGCGGCGGCGGAGTCACCTAGTGCAG”, the binding signal is 5510 fluorescence intensity (a.u.).

In the case of “AAGTCCGATTTCTGTTCGTTTTAGTAGACAGTATATATCTCGGAGTCACCTAGTGCAG”, the binding signal is 3140 fluorescence intensity (a.u.).

Regarding “ATGGCGTGCCATTCCAGCGGTCCGGCCGCCGCGTCAGCCACGGAGTCACCTAGTGCAG”, the binding signal was 9740 fluorescence intensity (a.u.).

Consider “TATATATCAAATCCTGACCATGTGCGTATGTTACCCTCAACGGAGTCACCTAGTGCAG”, for which the binding signal was 3920 fluorescence intensity (a.u.).

For “AGGAGGAGATCAAACCTTATCCGCATCATCCACCTCCTTGCGGAGTCACCTAGTGCAG”, the binding signal was 5330 fluorescence intensity (a.u.).

Take “GACACCCTATGTAATAACCGATGTGACACGTCAAAACTTTCGGAGTCACCTAGTGCAG”: the binding signal is 6510 fluorescence intensity (a.u.).

Regarding “TTCGCTCGTGTCATCCCCGAGCTCAGCCGCCGTCGCCAGTCGGAGTCACCTAGTGCAG”, the binding signal is 27300 fluorescence intensity (a.u.).

Turning to “GTGCGGGCGGGCGCGGGCGCGACGCGCGTGGCGCGGGTGGCGGAGTCACCTAGTGCAG”, the binding signal was 3570 fluorescence intensity (a.u.).

With “ATGGAATCGCCGCCGCGGTCGTGCTCAGATCACGCCGCCGCGGAGTCACCTAGTGCAG”, the binding signal is 4080 fluorescence intensity (a.u.).

Turning to “ACAGATACTGCGTAGTAGTACTAGGTTAGACCAGTGGTTTCGGAGTCACCTAGTGCAG”, the binding signal is 4260 fluorescence intensity (a.u.).

Turning to “ATTGTCTTTCCTGTACAACATGTCACCAGCATAAATGGTCCGGAGTCACCTAGTGCAG”, the binding signal was 4780 fluorescence intensity (a.u.).

Consider “ACCTGTTCGATGTGCTTGACCGTTTCAACGCCTAGGCCCACGGAGTCACCTAGTGCAG”, for which the binding signal was 33800 fluorescence intensity (a.u.).

Turning to “TGATTCAGAAGCTTTCCTTGCCAATGTGTCAGCCTTGTCGCGGAGTCACCTAGTGCAG”, the binding signal was 6780 fluorescence intensity (a.u.).

As to “AGAGGGGCAGAGAGAGAGAGTGAGTGAGAAAGAGATCAAGCGGAGTCACCTAGTGCAG”, the binding signal was 56600 fluorescence intensity (a.u.).

Regarding “ATGCCGATGTCTTCTCGTCATTGGATGGCTATGCCCATGCCGGAGTCACCTAGTGCAG”, the binding signal is 3730 fluorescence intensity (a.u.).

In the case of “GAGGTGCCTGCTCGTCCTCGATGACGTCTGGGATGACAACCGGAGTCACCTAGTGCAG”, the binding signal was 4030 fluorescence intensity (a.u.).

On to “CACACAACGAAGAGCCAGAGACACGTGTCGACATCTGAGACGGAGTCACCTAGTGCAG”, for which the binding signal is 9510 fluorescence intensity (a.u.).

Turning to “ATAACTAAAAGTTGTTATATTTTGGAACGGAGGCAGTACGCGGAGTCACCTAGTGCAG”, the binding signal is 7850 fluorescence intensity (a.u.).

With “CTCCAATGAACGAACGCAGCATTAGAATCCTTTGACACGGCGGAGTCACCTAGTGCAG”, the binding signal is 3690 fluorescence intensity (a.u.).

Consider “GCGTGACGGATTCGCCTGCGTCATCAACACAAAACATATGCGGAGTCACCTAGTGCAG”, for which the binding signal was 6750 fluorescence intensity (a.u.).

For the sequence “CAAATATTTTATCCAAAATAAACCGTTATGAAATCCGATTCGGAGTCACCTAGTGCAG”, the binding signal was 24400 fluorescence intensity (a.u.).

Take “ACTCTGCCCAAAATCTCATCCTGATGATGCACTACCACACCGGAGTCACCTAGTGCAG”: the binding signal is 3830 fluorescence intensity (a.u.).

For “GCAGCAGCCGCGTCATCTTGACGTCGGCGCGGCAGCGAGCCGGAGTCACCTAGTGCAG”, the binding signal was 9260 fluorescence intensity (a.u.).
